Results are given in words; binding and its absence hold for the method and conditions named. In cells and extracts the contact can be indirect. Some binding calls cover weakened binding; strength is not graded here. For part of these data: Tags and fused reporters may be left off the sequences shown.
Assays:
[1] = biological target: HA-tagged ASK1 N-terminal truncated mutant, HA-ASK1 1-678 (human) (UniProt Q99683); assay: co-IP; dimerisation experiment: HA/FLAG-tagged ASK1 N-terminal and MYC-tagged SDPR transfected into HEK 293T; precipitation with anti-HA/FLAG antibody
[2] = biological target: HA-tagged full-length apoptosis signal-regulating kinase 1 (ASK1) (human) (UniProt Q99683); assay: co-IP; exogenous co-IP: HEK293T cells co-transfected with FLAG-tagged SDPR and HA-tagged ASK1 (full length or truncated); precipitation with anti-FLAG or anti-HA antibody, steps as for the endogenous co-IP
[3] = biological target: HA-tagged ASK1 N-terminal truncated mutant, HA-ASK1 1-678 (human) (UniProt Q99683); assay: as above

By UniProt entry, the sequences of proteins in these tests, tags left out. Where a name states a change or a piece, a line headed by the entry shows the natural chain unless it says otherwise.
UniProt Q99683: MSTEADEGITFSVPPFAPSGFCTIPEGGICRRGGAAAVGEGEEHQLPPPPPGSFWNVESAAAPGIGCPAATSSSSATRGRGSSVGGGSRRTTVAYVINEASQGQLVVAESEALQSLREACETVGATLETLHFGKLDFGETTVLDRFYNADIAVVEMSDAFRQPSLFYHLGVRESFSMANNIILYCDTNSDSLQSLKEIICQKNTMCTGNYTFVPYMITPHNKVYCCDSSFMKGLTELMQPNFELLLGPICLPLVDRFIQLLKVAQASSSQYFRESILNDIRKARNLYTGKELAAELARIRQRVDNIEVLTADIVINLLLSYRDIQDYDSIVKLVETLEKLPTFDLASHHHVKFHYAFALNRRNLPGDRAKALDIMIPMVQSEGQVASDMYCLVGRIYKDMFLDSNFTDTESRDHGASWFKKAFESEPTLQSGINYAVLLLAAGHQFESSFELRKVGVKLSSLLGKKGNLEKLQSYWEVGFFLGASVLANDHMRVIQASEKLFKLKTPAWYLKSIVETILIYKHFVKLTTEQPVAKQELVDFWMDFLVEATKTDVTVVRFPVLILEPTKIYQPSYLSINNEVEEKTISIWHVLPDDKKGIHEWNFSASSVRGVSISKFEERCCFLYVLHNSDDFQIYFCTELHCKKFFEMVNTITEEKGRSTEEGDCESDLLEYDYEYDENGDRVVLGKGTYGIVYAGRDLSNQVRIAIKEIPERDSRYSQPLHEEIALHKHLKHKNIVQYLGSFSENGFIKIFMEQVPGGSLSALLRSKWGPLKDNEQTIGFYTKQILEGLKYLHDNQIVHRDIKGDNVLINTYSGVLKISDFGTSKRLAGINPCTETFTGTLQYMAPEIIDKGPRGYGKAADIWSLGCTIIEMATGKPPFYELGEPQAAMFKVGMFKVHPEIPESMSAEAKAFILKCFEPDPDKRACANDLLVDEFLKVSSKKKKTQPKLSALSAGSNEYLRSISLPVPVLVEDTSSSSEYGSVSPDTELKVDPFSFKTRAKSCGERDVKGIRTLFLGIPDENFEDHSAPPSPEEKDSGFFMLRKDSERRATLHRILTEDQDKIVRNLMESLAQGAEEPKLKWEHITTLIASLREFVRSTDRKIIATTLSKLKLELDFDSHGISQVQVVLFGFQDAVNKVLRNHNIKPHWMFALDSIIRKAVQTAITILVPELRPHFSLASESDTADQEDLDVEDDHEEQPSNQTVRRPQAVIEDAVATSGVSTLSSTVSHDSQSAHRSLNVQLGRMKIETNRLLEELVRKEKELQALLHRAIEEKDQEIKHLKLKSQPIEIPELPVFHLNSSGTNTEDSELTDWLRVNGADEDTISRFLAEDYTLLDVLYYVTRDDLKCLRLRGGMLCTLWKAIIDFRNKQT

binding [1] | binding [2] | binding [3] | Molecule
binds |  |  | HA-tagged ASK1 N-terminal truncated mutant, HA-ASK1 1-678 (from UniProt Q99683 1-678) (domain or fragment)
 | binds | binds | FLAG-tagged serum deprivation-response protein (SDPR), expressed in HEK293T cells (protein, UniProt O95810 1-425) MGEDAAQAEKFQHPGSDMRQEKPSSPSPMPSSTPSPSLNLGNTEEAIRDNSQVNAVTVLTLLDKLVNMLDAVQENQHKMEQRQISLEGSVKGIQNDLTKLSKYQASTSNTVSKLLEKSRKVSAHTRAVKERMDRQCAQVKRLENNHAQLLRRNHFKVLIFQEENEIPASVFVKQPVSGAVEGKEELPDENKSLEETLHTVDLSSDDDLPHDEEALEDSAEEKVEESRAEKIKRSSLKKVDSLKKAFSRQNIEKKMNKLGTKIVSVERREKIKKSLTSNHQKISSGKSSPFKVSPLTFGRKKVREGESHAENETKSEDLPSSEQMPNDQEEESFAEGHSEASLASALVEGEIAEEAAEKATSRGSNSGMDSNIDLTIVEDEEEESVALEQAQKVRYEGSYALTSEEAERSDGDPVQPAVLQVHQTS

Reference: article PMC8087765
